Reference: paper PMC10517016, “SCARB2 drives hepatocellular carcinoma tumor initiating cells via enhanced MYC transcriptional activity” (Nature Communications, 2023)
These are yes or no findings as the source states them, for the method shown. Binding seen in cells or lysates may run through a third protein. A yes stands for co-enrichment or nearness to the bait. Other partners may have been found.

Protein sequences, listed by entry. Tags and fused reporters are not part of them.
UniProt O15379: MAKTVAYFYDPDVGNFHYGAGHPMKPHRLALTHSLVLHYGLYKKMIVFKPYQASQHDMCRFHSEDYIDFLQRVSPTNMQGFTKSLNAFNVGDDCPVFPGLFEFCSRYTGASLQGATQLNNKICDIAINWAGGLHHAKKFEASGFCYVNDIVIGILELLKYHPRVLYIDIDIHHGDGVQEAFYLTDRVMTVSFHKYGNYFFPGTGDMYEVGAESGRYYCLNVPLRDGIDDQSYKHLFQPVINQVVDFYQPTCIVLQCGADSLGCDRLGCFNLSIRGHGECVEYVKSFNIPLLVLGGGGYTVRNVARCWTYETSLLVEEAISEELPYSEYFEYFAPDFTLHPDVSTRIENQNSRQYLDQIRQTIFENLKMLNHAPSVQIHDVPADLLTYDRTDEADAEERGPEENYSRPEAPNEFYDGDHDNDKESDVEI

Target: T1, Scavenger receptor class B member 2 (SCARB2), endogenous (human (endogenous in HCCLM3)) (UniProt Q14108)
T1 sequence: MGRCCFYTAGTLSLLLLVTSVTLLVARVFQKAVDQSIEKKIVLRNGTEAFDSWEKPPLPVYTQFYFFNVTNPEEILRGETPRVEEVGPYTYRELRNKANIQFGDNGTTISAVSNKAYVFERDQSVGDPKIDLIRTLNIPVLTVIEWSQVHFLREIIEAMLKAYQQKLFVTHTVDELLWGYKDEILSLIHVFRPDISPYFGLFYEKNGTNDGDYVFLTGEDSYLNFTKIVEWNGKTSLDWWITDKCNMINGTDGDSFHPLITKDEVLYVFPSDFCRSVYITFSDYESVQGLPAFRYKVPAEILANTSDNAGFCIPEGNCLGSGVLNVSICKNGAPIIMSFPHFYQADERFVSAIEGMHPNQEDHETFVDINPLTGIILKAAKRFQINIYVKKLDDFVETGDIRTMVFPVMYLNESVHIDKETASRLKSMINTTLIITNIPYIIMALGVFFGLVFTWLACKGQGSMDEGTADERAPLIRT
Assay: affinity purification with mass spectrometry; whole-cell lysates of HCCLM3 cells, IP with anti-SCARB2 antibody or IgG1 isotype control and Protein A/G agarose overnight at 4 °C, quantitative MS

Substance	binding
HDAC3 (endogenous) (from UniProt O15379 1-428) (enzyme)	binds
MYC (endogenous, wild type) (from UniProt P01106-2 1-454)	binds
